Measurements reported in publication doi:10.1101/2024.04.02.587808.

Molecular target: T1, mCherry-RILPL1 (RILP-like protein 1) (UniProt Q5EBL4)
T1 sequence: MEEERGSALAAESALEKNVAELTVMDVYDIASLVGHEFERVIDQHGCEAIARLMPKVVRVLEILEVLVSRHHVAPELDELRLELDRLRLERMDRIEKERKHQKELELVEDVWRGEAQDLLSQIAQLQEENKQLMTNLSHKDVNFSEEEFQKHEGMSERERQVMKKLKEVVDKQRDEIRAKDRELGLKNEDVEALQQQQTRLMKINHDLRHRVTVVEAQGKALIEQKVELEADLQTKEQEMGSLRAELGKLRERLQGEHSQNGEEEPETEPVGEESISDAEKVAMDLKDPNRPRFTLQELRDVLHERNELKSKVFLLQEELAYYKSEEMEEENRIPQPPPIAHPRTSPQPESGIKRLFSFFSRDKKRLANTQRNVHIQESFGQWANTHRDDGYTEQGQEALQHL
Assay: co-IP; HEK293FT cells transfected with 3xflag-LRRK2 and mCherry-RILPL1 for 24 h, treated or not with LLOME (1 mM, 2 h); lysate (150 mM NaCl, 0.3% Triton X-100) on RFP-Trap magnetic beads, 1 h, 4°C; washes with 300 mM NaCl, 0.1% Triton X-100; immunoblot

binding: no binding
Substance: dynein-light intermediate chain (DLIC) (human (endogenous in HEK293FT))

These are yes or no findings as the source states them, for the method shown. Binding seen in cells or lysates may run through a third protein.
